# Where a chain is given by its changes, count along the chain named. Names may count otherwise. Results are given in words; binding and its absence hold for the method and conditions named. Some results given as binding are weak or reduced against the parent protein; the word gives no strength.
# B1: CCDC127 WT-HA (full-length CCDC127 with HA tag) (natural protein, human, UniProt Q96BQ5 1-260, looked up)
# chain: MNNLNDPPNWNIRPNSRADGGDGSRWNYALLVPMLGLAAFRWIWSRESQKEVEKEREAYRRRTAAFQQDLEAKYHAMISENRRAVAQLSLELEKEQNRTASYREALISQGRKLVEEKKLLEQERAQVMQEKRQVQPLRSAYLSCLQREENWQRRARLLLKEFEAVLTERQNIYCSLFLPRSKRLEIEKSLLVRASVDPVAADLEMAAGLTDIFQHDTYCGDVWNTNKRQNGRLMWLYLKYWELVVELKKFKRVEEAILEK
# B2: full-length CCDC127 K73A (protein, UniProt Q96BQ5 1-260)
# chain: B1 chain with K73A
# How the values were obtained:
# [1] = target: full-length wild-type CCDC127 (BN-PAGE of HEK293T mitochondria) (human) (UniProt Q96BQ5); test: native gel or EMSA
# [2] = target: full-length CCDC127 K73A (human) (UniProt Q96BQ5); test: native gel or EMSA
Binder,binding [1],binding [2]
B1,binds,–
B2,–,binds

# Reference: doi:10.64898/2025.12.11.693622 (bioRxiv, 2025)
